Results published in PMC7819943, “Rice protein-binding microarrays: a tool to detect cis-acting elements near promoter regions in rice”.
This is one part of the list.

Chains of the proteins cited; added tags and fusions are not shown.
UniProt Q0JBA9, entry or part of it: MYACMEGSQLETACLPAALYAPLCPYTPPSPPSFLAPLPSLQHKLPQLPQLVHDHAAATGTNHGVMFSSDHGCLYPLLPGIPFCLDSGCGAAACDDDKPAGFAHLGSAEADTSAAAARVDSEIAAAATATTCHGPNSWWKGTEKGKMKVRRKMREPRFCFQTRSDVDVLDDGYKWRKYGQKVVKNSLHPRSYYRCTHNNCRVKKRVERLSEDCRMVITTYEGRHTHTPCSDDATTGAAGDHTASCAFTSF

What follows are sequences tested against OsWRKY34 (Oryza sativa, UniProt Q0JBA9 1-250) (assay: protein-binding microarray (RPBM); PBS, 2% BSA, 51.3 ng/ul salmon testes DNA, 50 uM zinc acetate, 200 nM TF, 25 C, 1 h; high values mean tight binding). Details: protein: recombinant; tags: N-terminal polyhistidine and DsRed monomer fusion (pET32a); label: CyDye5-dUTP incorporated in the synthesized complementary strand; 3' TTTTT single-stranded linker to array surface; dsDNA, one strand shown.
Method in brief: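 Transcription factors were made in E. coli BL21-CodonPlus as N-terminal fusions to a polyhistidine tag and DsRed, then purified on Ni–NTA. After primer extension with Cy5-dUTP and blocking with 2% BSA, a custom Agilent array was exposed for 1 h at 25 °C to 200 nM protein in PBS, 2% BSA, salmon testes DNA and 50 µM zinc acetate. Washed arrays were scanned on an Axon 4000B, and the binding signal is per-feature fluorescence intensity in arbitrary units.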
“CAATCGATCCCTTCCATTCTTCTTCCAACCGGCCAACGCGCGGAGTCACCTAGTGCAG” was tested, and the binding signal was 8070 fluorescence intensity (a.u.).
In the case of “CTCCAACTGTGAGTTTCTGTTCAGGTCATCCCCTGATTTTCGGAGTCACCTAGTGCAG”, the binding signal is reported as 8060 fluorescence intensity (a.u.).
For “GAATGACGAGCTGGTCACTGGTCACTGGTCAGCCGAGGAACGGAGTCACCTAGTGCAG”, the binding signal was 8120 fluorescence intensity (a.u.).
With “CTCTTGAACGTTGTCGCCCGCCGTTTCCCGCCGCTGTCTCCGGAGTCACCTAGTGCAG” the binding signal was 18200 fluorescence intensity (a.u.).
For “GGGAAAGGCTGTAGGAATATATCACCACCTGTCATCATCACGGAGTCACCTAGTGCAG”, the binding signal was 9180 fluorescence intensity (a.u.).
In the case of “CCCTACGTGCACACATCCAGCTCCATTATATAGCCATTTTCGGAGTCACCTAGTGCAG”, the binding signal is reported as 8970 fluorescence intensity (a.u.).
“CCTCACCCGCCTCGCCGTCTTCCACCCGTGCGTGCGTCCCCGGAGTCACCTAGTGCAG” was tested, and the binding signal was 8350 fluorescence intensity (a.u.).
In the case of “TGCACGGCGCACCTGCGAATGATCTGGCCACCGCCACCGACGGAGTCACCTAGTGCAG”, the binding signal is reported as 9020 fluorescence intensity (a.u.).
In the case of “CCTTGCTGCCAGATCACTTAATTCTGCAACCTGGTAATATCGGAGTCACCTAGTGCAG”, the binding signal is reported as 13100 fluorescence intensity (a.u.).
With “GCCTCTGTTCTTCCACTCATTATTATCATTTGCAGCTCCGCGGAGTCACCTAGTGCAG” the binding signal was 10400 fluorescence intensity (a.u.).
In the case of “AGCTGGATTACCCTTTATACATTTTACTTTAATCTCTTTGCGGAGTCACCTAGTGCAG”, the binding signal is reported as 10900 fluorescence intensity (a.u.).
For “ATCCGTATCCAATCCGCGCCGTCCAATCGCTCGATCCAACCGGAGTCACCTAGTGCAG”, the binding signal was 8770 fluorescence intensity (a.u.).
In the case of “TTTCCGGCTTTGTACAAACATGTTTCGTGATGCATACTTTCGGAGTCACCTAGTGCAG”, the binding signal is reported as 11400 fluorescence intensity (a.u.).
With “TTGATACCGTTGACTTTTTAGCACATGTTTGACCATTCATCGGAGTCACCTAGTGCAG” the binding signal was 39400 fluorescence intensity (a.u.).
In the case of “GTTCTTTTTTATAAAGTTCTTGACCTGTGTTTCTTTTTTACGGAGTCACCTAGTGCAG”, the binding signal is reported as 12000 fluorescence intensity (a.u.).
For “GATGTTGACTGGTGTGTACTGTTTGTTGTGGTGGCTGCAGCGGAGTCACCTAGTGCAG”, the binding signal was 9030 fluorescence intensity (a.u.).
For “TTAGTTCTTTAGTTGCAATTATGCGTGTTATACTTTAGCTCGGAGTCACCTAGTGCAG”, the binding signal was 8930 fluorescence intensity (a.u.).
For “CTCCTGGTCCCAACTTCGCCCCGCTGAAACACCGCGGCCGCGGAGTCACCTAGTGCAG”, the binding signal was 10200 fluorescence intensity (a.u.).
For “CGCTCATCTCATCGCTCTCGCCTCGACTCGCCTCCACGAACGGAGTCACCTAGTGCAG”, the binding signal was 8190 fluorescence intensity (a.u.).
“CATTATTTGGGTTATATGCTGCGGATGAGAGATGGGCCGCCGGAGTCACCTAGTGCAG” was tested, and the binding signal was 8390 fluorescence intensity (a.u.).
In the case of “TCTGCTTCTTCATCCTCGTGCTCTGCTTCTCTCTTCTTCCCGGAGTCACCTAGTGCAG”, the binding signal is reported as 8980 fluorescence intensity (a.u.).
With “TGACCTCAAAATCCATGCATTTTAACAAAATATCACTTTCCGGAGTCACCTAGTGCAG” the binding signal was 8300 fluorescence intensity (a.u.).
For “AGGGTTATAATTAGATGGGTAGTGGAGGTAGGTAAGAAAACGGAGTCACCTAGTGCAG”, the binding signal was 9550 fluorescence intensity (a.u.).
In the case of “TATTTATCTAGTCTTATATGGGTTTCGGTATATTGAAATACGGAGTCACCTAGTGCAG”, the binding signal is reported as 9060 fluorescence intensity (a.u.).
With “ACCCTCTCACCCTAGCTTAGTTTGCCACGACCTGGACCCACGGAGTCACCTAGTGCAG” the binding signal was 10100 fluorescence intensity (a.u.).
With “AACAATCCCAATTCCGTAGACATTCACCCATTTCTTACCGCGGAGTCACCTAGTGCAG” the binding signal was 9430 fluorescence intensity (a.u.).
For “TCCACATCCCTACTAGTATACATCATTGCTGCTGCTCTGCCGGAGTCACCTAGTGCAG”, the binding signal was 12000 fluorescence intensity (a.u.).
In the case of “TATATCACACTCTTATTGTCTATACATTTTTTTTTGAATTCGGAGTCACCTAGTGCAG”, the binding signal is reported as 8820 fluorescence intensity (a.u.).
For “TTCATCTTCGCTGTCCACCGCAGCGGCGGCGGCTTTGCATCGGAGTCACCTAGTGCAG”, the binding signal was 8270 fluorescence intensity (a.u.).
With “ATCCATCCCGCACGGTTGCACAGTTGCACTCGTTCGTTCGCGGAGTCACCTAGTGCAG” the binding signal was 9340 fluorescence intensity (a.u.).
In the case of “GTCGGAAGGGTTGCGGTTTCGTGCCTTGCTCTTGTTGGCGCGGAGTCACCTAGTGCAG”, the binding signal is reported as 9260 fluorescence intensity (a.u.).
“TAAATGACTTGTATGTTTTGTGGGCGGTTAATTTGACTTCCGGAGTCACCTAGTGCAG” was tested, and the binding signal was 10600 fluorescence intensity (a.u.).
In the case of “TTTTTCTTAGGGCCGGCGCGGGTGGGACCGGGAGATTGGGCGGAGTCACCTAGTGCAG”, the binding signal is reported as 8840 fluorescence intensity (a.u.).
For “TTATATATTGTTCCGGCCAGTGTATAATACTACGATCTATCGGAGTCACCTAGTGCAG”, the binding signal was 8710 fluorescence intensity (a.u.).
With “CCCGTAACACGAGTCCACCTCCCGTTCCCGCCACCACCATCGGAGTCACCTAGTGCAG” the binding signal was 13300 fluorescence intensity (a.u.).
“ACCGTACGTGGCGCCACCGCCGCGCCTGCCGCCTGGACACCGGAGTCACCTAGTGCAG” was tested, and the binding signal was 8680 fluorescence intensity (a.u.).
With “CATCTTCTCTCTATATATATTTATAGCTGGTTTAAAGTATCGGAGTCACCTAGTGCAG” the binding signal was 9840 fluorescence intensity (a.u.).
With “CCCCAGCCGACTGCCTCACGCCGTCAATCTCGCCGTCACCCGGAGTCACCTAGTGCAG” the binding signal was 8170 fluorescence intensity (a.u.).
In the case of “CAGGCTATTGGCTTTACTTTTCATGACCCGGCAAGCCGAACGGAGTCACCTAGTGCAG”, the binding signal is reported as 9010 fluorescence intensity (a.u.).
With “TATGACATTCCTCCTACCATGCATTCTCTTTCAGCTTTGTCGGAGTCACCTAGTGCAG” the binding signal was 9000 fluorescence intensity (a.u.).
With “CCCGGCCTGTCTAGCGCCTCGACTCCATTCAACTCGCGCACGGAGTCACCTAGTGCAG” the binding signal was 8620 fluorescence intensity (a.u.).
With “AAGGGTTCAAAACTGGGTCAGGGCTGAGTGAAATGCATAACGGAGTCACCTAGTGCAG” the binding signal was 8070 fluorescence intensity (a.u.).
